Values quoted from earlier work in patent publication US20170027865A1, “Dry Pharmaceutical Compositions for Topical Delivery of Oral Medications, Nasal Delivery and to Treat Ear Disorders” (CMPD LICENSING LLC, priority 2013, published 2017).
At least one compound was matched to its structure with a doubt left.

Tests used:
Clostridium difficile = details: Gram: anaer
Clostridium perfringens = details: Gram: anaer
Chlamydia psittaci = details: Gram: n/a
Brucella species = details: Gram: neg
Francisella tularensis = details: Gram: neg
Legionella pneumophila = details: Gram: neg
Rickettsiae = details: Gram: neg
Shigella boydii = details: Gram: neg
Shigella flexneri = details: Gram: neg
Shigella sonnei = details: Gram: neg
Yersinia pestis = details: Gram: neg
[1] = test system: Paracoccidioides brasiliensis

Q: Which Expected coverage (Clostridium difficile) does the source give for `CCC[C@@H]1C[C@@H](C(=O)N[C@@H]([C@H]2O[C@H](SC)[C@H](O)[C@@H](O)[C@H]2O)[C@H](C)Cl)N(C)C1` [Clindamycin, clindamycin] here?
A: The Expected coverage was “±”.

Q: What about the Expected coverage (Clostridium perfringens) of the same molecule?
A: Its Expected coverage is “yes-partial”.

Q: For `C[C@H]1c2cccc(O)c2C(=O)C2=C(O)[C@]3(O)C(=O)C(C(N)=O)=C(O)[C@@H](N(C)C)[C@@H]3[C@@H](O)[C@@H]21` [Doxycycline, doxycycline], which Expected coverage (Clostridium difficile) is on record?
A: The Expected coverage was “±”.

Q: And the Expected coverage (Chlamydia psittaci)?
A: Its Expected coverage is “yes”.

Q: And the Expected coverage (Brucella species)?
A: Its Expected coverage is “yes”.

Q: And the Expected coverage (Francisella tularensis)?
A: The Expected coverage was “yes”.

Q: What about the Expected coverage (Legionella pneumophila) of the same molecule?
A: The Expected coverage was “yes”.

Q: And the Expected coverage (Rickettsiae)?
A: Its Expected coverage is “yes”.

Q: What about the Expected coverage (Shigella boydii) of the same molecule?
A: The Expected coverage was “±”.

Q: What about the Expected coverage (Shigella flexneri) of the same molecule?
A: Its Expected coverage is “±”.

Q: What about the Expected coverage (Shigella sonnei) of the same molecule?
A: Its Expected coverage is “±”.

Q: What about the Expected coverage (Yersinia pestis) of the same molecule?
A: The Expected coverage was “yes”.

Q: Which results are given for `CCC(C)n1ncn(-c2ccc(N3CCN(c4ccc(OCC5COC(Cn6cncn6)(c6ccc(Cl)cc6Cl)O5)cc4)CC3)cc2)c1=O` (stereo not shown) [Itraconazole, itraconazole]?
A: Expected coverage (Coccidioides immitis): yes; Expected coverage (Histoplasma duboisii): yes; Expected coverage [1]: yes

Q: For `C[C@H]1COc2c(N3CCN(C)CC3)c(F)cc3c(=O)c(C(=O)O)cn1c23` [Levofloxacin, levofloxacin], which Expected coverage (Clostridium difficile) is on record?
A: Its Expected coverage is “no”.

Q: And the Expected coverage (Clostridium perfringens)?
A: The Expected coverage was “yes”.

Q: What about the Expected coverage (Brucella species) of the same molecule?
A: The Expected coverage was “±”.

Q: What about the Expected coverage (Francisella tularensis) of the same molecule?
A: The Expected coverage was “yes”.

Q: What about the Expected coverage (Legionella pneumophila) of the same molecule?
A: The Expected coverage was “yes”.

Q: What about the Expected coverage (Rickettsiae) of the same molecule?
A: Its Expected coverage is “yes”.

Q: And the Expected coverage (Shigella boydii)?
A: The Expected coverage was “yes”.

Q: What about the Expected coverage (Shigella flexneri) of the same molecule?
A: The Expected coverage was “yes”.

Q: What about the Expected coverage (Shigella sonnei) of the same molecule?
A: Its Expected coverage is “yes”.

Q: And the Expected coverage (Yersinia pestis)?
A: Its Expected coverage is “yes”.
